# From PMC3404119
# The exact form of at least one protein or probe is not confirmed. For part of these data: Protein sequences can lack the tags named with them.
# How the values were obtained:
# [1] = biological target: T1, Her1-GFP homodimer (zebrafish (Danio rerio)) (UniProt Q90463); test: MITOMI; settings: PPARgamma-mCherry co-present (non-interacting control); TnT SP6 wheat germ expression extract on MITOMI chip, 3 h at room temperature; salt and pH not stated; PBS used for washing; high values mean tight binding; protein translated in vitro; protein details: C-terminal GFP; label: Cy5; only the motif is given; counted as no binding
# T1 sequence (looked up, limits assumed): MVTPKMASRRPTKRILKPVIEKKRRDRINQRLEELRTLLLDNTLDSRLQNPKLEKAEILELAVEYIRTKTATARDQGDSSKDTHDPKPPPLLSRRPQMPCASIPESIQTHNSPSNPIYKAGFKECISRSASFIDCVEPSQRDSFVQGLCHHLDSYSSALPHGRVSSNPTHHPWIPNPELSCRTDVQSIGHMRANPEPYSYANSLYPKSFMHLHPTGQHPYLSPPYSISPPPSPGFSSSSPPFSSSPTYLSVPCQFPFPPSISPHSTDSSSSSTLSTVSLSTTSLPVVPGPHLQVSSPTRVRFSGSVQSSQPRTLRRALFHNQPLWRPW
# [2] = test system: Her7 (coupled to chip, Fig 2D) + Hes6-mCherry; test: MITOMI; settings: Her7:Hes6 heterodimer, Her7 coupled to chip and Hes6-mCherry in solution; TnT SP6 wheat germ expression extract on MITOMI chip, 3 h at room temperature; salt and pH not stated; PBS used for washing; high values mean tight binding; protein translated in vitro; label: Cy5; only the motif is given; counted as no binding
Sequence,binding signal (relative affinity (strongest site = 1)) [1],binding signal (relative affinity (strongest site = 1)) [2]
CTCAAAAAACCC (double strand) [47],0.0105,0.0137
CTCCACAAACCC (double strand) [46],0.0105,0.0131
GCTCAGGTGCGT (double strand) [45],0.00829,0.0134
TCACACCTGTGCAG (double strand) [44],0.00943,–
TCCCACGGGAAT (double strand) [34],0.0103,0.0103
